No constants are given. Whether binding was seen depends on the method and setting. Binding seen in cells or lysates may run through a third protein. Some entries that bind do so weakly or less than the wild type. Sequences can lack the tags named with a protein.
Columns and labels:
[1] = molecular target: T1, Mtb FecB-FLAG (Rv3044) (M. tuberculosis) (UniProt A5U758); assay: co-IP
T1 sequence: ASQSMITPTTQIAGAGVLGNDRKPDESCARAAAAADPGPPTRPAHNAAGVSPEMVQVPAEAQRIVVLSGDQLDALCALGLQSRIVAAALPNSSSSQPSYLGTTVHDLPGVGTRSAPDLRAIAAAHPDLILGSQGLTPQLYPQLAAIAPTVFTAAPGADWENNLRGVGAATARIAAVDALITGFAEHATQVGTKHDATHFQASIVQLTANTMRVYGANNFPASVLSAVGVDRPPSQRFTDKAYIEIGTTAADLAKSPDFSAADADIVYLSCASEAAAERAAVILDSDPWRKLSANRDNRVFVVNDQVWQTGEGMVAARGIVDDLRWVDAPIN

[2] = molecular target: T2, Mtb MmpS5-HA (Rv0677c) (M. tuberculosis) (UniProt P9WJS7); assay: co-IP
T2 sequence: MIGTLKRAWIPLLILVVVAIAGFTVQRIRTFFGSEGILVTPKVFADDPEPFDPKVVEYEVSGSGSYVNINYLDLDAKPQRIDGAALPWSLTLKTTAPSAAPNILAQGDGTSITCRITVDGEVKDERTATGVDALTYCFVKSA

Binder	binding [1]	binding [2]
Mtb MmpS5-HA (Rv0677c) (protein, UniProt P9WJS7 1-142) MIGTLKRAWIPLLILVVVAIAGFTVQRIRTFFGSEGILVTPKVFADDPEPFDPKVVEYEVSGSGSYVNINYLDLDAKPQRIDGAALPWSLTLKTTAPSAAPNILAQGDGTSITCRITVDGEVKDERTATGVDALTYCFVKSA	binds	–
Mtb FecB-FLAG (Rv3044) (protein, UniProt A5U758 29-359) ASQSMITPTTQIAGAGVLGNDRKPDESCARAAAAADPGPPTRPAHNAAGVSPEMVQVPAEAQRIVVLSGDQLDALCALGLQSRIVAAALPNSSSSQPSYLGTTVHDLPGVGTRSAPDLRAIAAAHPDLILGSQGLTPQLYPQLAAIAPTVFTAAPGADWENNLRGVGAATARIAAVDALITGFAEHATQVGTKHDATHFQASIVQLTANTMRVYGANNFPASVLSAVGVDRPPSQRFTDKAYIEIGTTAADLAKSPDFSAADADIVYLSCASEAAAERAAVILDSDPWRKLSANRDNRVFVVNDQVWQTGEGMVAARGIVDDLRWVDAPIN	–	binds

Reference: publication PMC10553834, “Differentiating the roles of Mycobacterium tuberculosis substrate binding proteins, FecB and FecB2, in iron uptake” (PLOS Pathogens, 2023)
